According to paper PMC7015241:
Results are given in words; binding and its absence hold for the method and conditions named. A result given as binding can be weak or reduced; the word gives no strength. Tags and fused reporters may be left off the sequences shown. Blank lines part the entries; values can stand above or below the binder they belong to.

Tests used:
[1] = biological target: Myopalladin (MYPN) C-terminal region (not stated (human or mouse cDNA cloned)); test: two-hybrid; pGBKT7 bait and pGADT7 prey cotransformed into Y2H Gold yeast; growth on SD medium lacking Trp, Leu, His and Ade with 120 ng/mL aureobasidin A, 30°C, 3–4 days
[2] = biological target: Myopalladin (MYPN) Ig3 domain, yeast two-hybrid fusion (not stated (human or mouse cDNA cloned)); test: as above

binding [1]: binds
binding [2]: binds
B1: Myocardin-related transcription factor A (MRTF-A), yeast two-hybrid fusion (protein, UniProt Q969V6 1-931)
chain: MPPLKSPAAFHEQRRSLERARTEDYLKRKIRSRPERSELVRMHILEETSAEPSLQAKQLKLKRARLADDLNEKIAQRPGPMELVEKNILPVESSLKEAIIVGQVNYPKVADSSSFDEDSSDALSPEQPASHESQGSVPSPLEARVSEPLLSATSASPTQVVSQLPMGRDSREMLFLAEQPPLPPPPLLPPSLTNGTTIPTAKSTPTLIKQSQPKSASEKSQRSKKAKELKPKVKKLKYHQYIPPDQKQDRGAPPMDSSYAKILQQQQLFLQLQILNQQQQQHHNYQAILPAPPKSAGEALGSSGTPPVRSLSTTNSSSSSGAPGPCGLARQNSTSLTGKPGALPANLDDMKVAELKQELKLRSLPVSGTKTELIERLRAYQDQISPVPGAPKAPAATSILHKAGEVVVAFPAARLSTGPALVAAGLAPAEVVVATVASSGVVKFGSTGSTPPVSPTPSERSLLSTGDENSTPGDTFGEMVTSPLTQLTLQASPLQILVKEEGPRAGSCCLSPGGRAELEGRDKDQMLQEKDKQIEALTRMLRQKQQLVERLKLQLEQEKRAQQPAPAPAPLGTPVKQENSFSSCQLSQQPLGPAHPFNPSLAAPATNHIDPCAVAPGPPSVVVKQEALQPEPEPVPAPQLLLGPQGPSLIKGVAPPTLITDSTGTHLVLTVTNKNADSPGLSSGSPQQPSSQPGSPAPAPSAQMDLEHPLQPLFGTPTSLLKKEPPGYEEAMSQQPKQQENGSSSQQMDDLFDILIQSGEISADFKEPPSLPGKEKPSPKTVCGSPLAAQPSPSAELPQAAPPPPGSPSLPGRLEDFLESSTGLPLLTSGHDGPEPLSLIDDLHSQMLSSTAILDHPPSPMDTSELHFVPEPSSTMGLDLADGHLDSMDWLELSSGGPVLSLAPLSTTAPSLFSTDFLDGHDLQLHWDSCL

binding [1]: binds
B2: Myocardin-related transcription factor B (MRTF-B), yeast two-hybrid fusion (protein, UniProt Q9ULH7 1-1088)
chain: MIDSSKKQQQGFPEILTAGDFEPLKEKECLEGSNQKSLKEVLQLRLQQRRTREQLVDQGIMPPLKSPAAFHEQIKSLERARTENFLKHKIRSRPDRSELVRMHILEETFAEPSLQATQMKLKRARLADDLNEKIAQRPGPMELVEKNILPVDSSVKEAIIGVGKEDYPHTQGDFSFDEDSSDALSPDQPASQESQGSAASPSEPKVSESPSPVTTNTPAQFASVSPTVPEFLKTPPTADQPPPRPAAPVLPTNTVSSAKPGPALVKQSHPKNPNDKHRSKKCKDPKPRVKKLKYHQYIPPDQKGEKNEPQMDSNYARLLQQQQLFLQLQILSQQKQHYNYQTILPAPFKPLNDKNSNSGNSALNNATPNTPRQNTSTPVRKPGPLPSSLDDLKVSELKTELKLRGLPVSGTKPDLIERLKPYQEVNSSGLAAGGIVAVSSSAIVTSNPEVTVALPVTTLHNTVTSSVSTLKAELPPTGTSNATRVENVHSPLPISPSPSEQSSLSTDDTNMADTFTEIMTMMSPSQFLSSSPLRMTNNEDSLSPTSSTLSNLELDAAEKDRKLQEKEKQIEELKRKLEQEQKLVEVLKMQLEVEKRGQQQRPLEAQPSAPGHSVKSDQKHGSLGSSIKDEASLPDCSSSRQPIPVASHAVGQPVSTGGQTLVAKKAVVIKQEVPVGQAEQQSVVSQFYVSSQGQPPPAVVAQPQALLTTQTAQLLLPVSIQGSSVTSVQLPVGSLKLQTSPQAGMQTQPQIATAAQIPTAALASGLAPTVPQTQDTFPQHVLSQPQQVRKVFTNSASSNTVLPYQRHPAPAVQQPFINKASNSVLQSRNAPLPSLQNGPNTPNKPSSPPPPQQFVVQHSLFGSPVAKTKDPPRYEEAIKQTRSTQAPLPEISNAHSQQMDDLFDILIKSGEISLPIKEEPSPISKMRPVTASITTMPVNTVVSRPPPQVQMAPPVSLEPMGSLSASLENQLEAFLDGTLPSANEIPPLQSSSEDREPFSLIEDLQNDLLSHSGMLDHSHSPMETSETQFAAGTPCLSLDLSDSNLDNMEWLDITMPNSSSGLTPLSTTAPSMFSADFLDPQDLPLPWD
